Results are given in words; binding and its absence hold for the method and conditions named. In cells and extracts the contact can be indirect.
Columns and labels:
Assay in all cases: co-IP; GFP nanobody affinity resin IP of EGFP-Rab baits from transiently transfected 293T cells in the presence of GTPγS (2 mM in the lysis buffer); immunoblots with anti-FHIP1B or anti-FHIP2A; 3xHA-sfGFP as control
EGFP-Rab7 (human) = target: EGFP-Rab7 (human)
EGFP-Rab2 (human) = target: EGFP-Rab2 (human)
EGFP-Rab9 (human) = target: EGFP-Rab9 (human)
EGFP-Rab8 (human) = target: EGFP-Rab8 (human)
EGFP-Rab11 (human) = target: EGFP-Rab11 (human)

binding (EGFP-Rab7 (human)): no binding
binding (EGFP-Rab2 (human)): no binding
binding (EGFP-Rab9 (human)): no binding
binding (EGFP-Rab8 (human)): no binding
binding (EGFP-Rab11 (human)): no binding
B1: FHIP1B, endogenous in 293T cells (protein, UniProt Q8N612 1-972)
chain: MERMNWLSRLASRGPGHRIPQGANLQTPVMADPETCLMVFKNHWSQVVRILERQGPRAAPGGADDLSAVRNHTYQMLTLLAEDRAVPSAPTGPGPLLEFALHEDLLTRVLTWQLQWDELGDGVEERRAEQLKLFEMLVSEARQPLLRHGPVREALLTLLDACGRPVPSSPALDEGLVLLLSQLCVCVAQEPSLLEFFLQPPPEPGAAPRLLLFSRLVPFVHREGTLGQQARDALLLLMALSAGSPTVGRYIADHSYFCPVLATGLSALYSSLPRKIEVPGDDWHCLRREDWLGVPALALFMSSLEFCNAVIQVAHPLVQKQLVDYIHNGFLVPVMGPALHKTSVEEMIASTAYLELFLRSISEPALLRTFLRFLLLHRHDTHTILDTLVARIGSNSRLCMVSLSLFRTLLNLSCEDVLLQLVLRYLVPCNHVMLSQKPAVRDVDLYGRAADKFLSLIPRCCRHHAPSPPRPEHASWARGPGSPSVDSSSVTTVPRPSTPSRLALFLRQQSLGGSESPGPAPCSPGLSASPASSPGRRPTPAEEPGELEDNYLEYLREARRGVDRCVRACRTWSAPYDGERPSPEPSPFGSRTKKRSLLPEEDRNNVGEGEEEELGRRGRAGGAGEGPGHLPPPQLNGVPGSWPEGAKKVRLVPKEGAGELLEGISEGMAGLEGFGQELRELEVALSNGGTGSESPLEPPLPLEEEEAYESFTCPPEPPGPFLSSPLRTLNQLPSQPFTGPFMAVLFAKLENMLQNSVYVNFLLTGLVAQLACHPQPLLRSFLLNTNMVFQPSVKSLLQVLGSVKNKIENFAASQEDFPALLSKAKKYLIARGKLDWAEGPAAGPAPRRSDPLVKSRRPSLGELLLRHAHSPTRARQAAQLVLQPGRDGAGLGLSGGSPGASTPVLLTRGGAPERQGEALRVKNAVYCAVIFPEFLKELAAISQAHAVTSPFLLETSEEGSGPLISGCGPLNP

Reference: article PMC8730729
